Assay: general procedure: Fmoc solid-phase peptide synthesis; CTC resin; HBTU/DIPEA in DMF
Conditions: whole synthesis, analytical HPLC and LC/MS

## Fol-hshta-Gly-Phe-Lys(DOTA)
  final HPLC purity: 97%
